Measured values as given in US8431593B2, “Heteroaryl amide derivatives” (H. Lundbeck A/S, priority 2006, dated 2013).
For at least one compound, name, drawing or mass did not settle the structure.

These compounds were tested against T1, P2X7 receptor (Homo sapiens, UniProt Q99572) (assay: P2X7 calcium mobilization assay, high throughput, antagonist activity (Example 4A)). Conditions: SH-SY5Y cells; 50% decrease in fluorescence response to 80 μM BzATP.
T1 construct: host or cells: SH-SY5Y
T1 sequence (Q99572 1-595): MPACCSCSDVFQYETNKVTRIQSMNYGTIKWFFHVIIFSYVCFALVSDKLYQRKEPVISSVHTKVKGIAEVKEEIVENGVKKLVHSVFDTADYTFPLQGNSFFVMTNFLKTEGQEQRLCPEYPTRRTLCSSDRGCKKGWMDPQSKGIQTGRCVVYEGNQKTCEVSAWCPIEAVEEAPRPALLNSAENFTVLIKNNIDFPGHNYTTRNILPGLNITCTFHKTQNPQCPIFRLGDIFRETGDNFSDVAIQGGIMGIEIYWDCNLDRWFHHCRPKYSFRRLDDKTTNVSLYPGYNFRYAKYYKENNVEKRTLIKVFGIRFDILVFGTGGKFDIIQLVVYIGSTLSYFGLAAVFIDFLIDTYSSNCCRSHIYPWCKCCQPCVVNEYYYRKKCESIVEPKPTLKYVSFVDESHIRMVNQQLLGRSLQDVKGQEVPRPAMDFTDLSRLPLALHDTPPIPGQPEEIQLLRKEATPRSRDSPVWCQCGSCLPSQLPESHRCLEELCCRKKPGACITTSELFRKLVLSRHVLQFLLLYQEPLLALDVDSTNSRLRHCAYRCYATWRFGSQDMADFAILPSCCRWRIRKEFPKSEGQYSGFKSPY
Type: cell-based
Procedure: One day prior to the experiment, cells are plated at a density of 100,000 cells/well in a 96 well black/clear TC plate (Corning® Costar®, Sigma-Aldrich Co., St. Louis, Mo.). […] After one hour dye incubation, wells are rinsed once with 50 μL assay solution, and are then incubated for an hour at room temperature with 100 μL assay solution containing the test compound. […] After the one hour incubation, plates are transferred to a FLIPR^TETRA instrument (Molecular Devices, Sunnyvale, Calif.) for calcium mobilization analysis.
First, the average maximum relative fluorescent unit (RFU) response from the negative control wells (no agonist) is subtracted from the maximum response detected for each of the other experimental wells. Second, average maximum RFU response is calculated for the positive control wells (agonist wells).
In the case of `NCCNC(=O)c1cn2c(C(=O)NCC34CC5CC(CC(C5)C3)C4)cccc2n1` [Compound 10, 5-N-(adamantan-1-ylmethyl)--(2-aminoethyl)imi-dazo[1,2-a]pyridine-2,5-dicarboxamide], the IC50 is reported as under 2 µM. Work on `CN(C)CCNC(=O)c1cn2c(C(=O)NCC34CC5CC(CC(C5)C3)C4)cccc2n1` [Compound 11, 5-N-(adamantan-1-ylmethyl)--[2-(dimethyl-amino)ethyl]imi-dazo[1,2-a]pyridine-2,5-dicarboxamide] yielded an IC50 of under 2 µM. Work on `CN(CC(C)(C)O)C(=O)c1cn2c(C(=O)NCC34CC5CC(CC(C5)C3)C4)cccc2n1` [Compound 109, 5-N-(adamantan-1-ylmethyl)--(2-hydroxy-2-methylpropyl)-- methylimidazo[1,2-a]pyridine-2,5-dicarboxamide] yielded an IC50 of under 2 µM. `CN(CCC(C)(C)O)C(=O)c1cn2c(C(=O)NCC34CC5CC(CC(C5)C3)C4)cccc2n1` [Compound 110, 5-N-(adamantan-1-ylmethyl)--(3-hydroxy-3-methylbutyl)-- methylimidazo[1,2-a]pyridine-2,5-dicarboxamide] gave an IC50 of under 2 µM. In the case of `CN(CCCC(C)(C)O)C(=O)c1cn2c(C(=O)NCC34CC5CC(CC(C5)C3)C4)cccc2n1` [Compound 111, 5-N-(adamantan-1-ylmethyl)--(4-hydroxy-4-methylpentyl)-- methylimidazo[1,2-a]pyridine-2,5-dicarboxamide], the IC50 is reported as under 2 µM. In the case of `CNCCN(C)C(=O)c1cn2c(C(=O)NCC34CC5CC(CC(C5)C3)C4)cccc2n1` [Compound 113, 5-N-(adamantan-1-ylmethyl)--methyl--[2-(methylamino)ethyl]imi-dazo[1,2-a]pyridine-2,5-dicarboxamide], the IC50 is reported as under 2 µM.
